Assay results published in paper PMC8065113.

By UniProt entry, the sequences of proteins in these tests, tags left out.
UniProt Q99961: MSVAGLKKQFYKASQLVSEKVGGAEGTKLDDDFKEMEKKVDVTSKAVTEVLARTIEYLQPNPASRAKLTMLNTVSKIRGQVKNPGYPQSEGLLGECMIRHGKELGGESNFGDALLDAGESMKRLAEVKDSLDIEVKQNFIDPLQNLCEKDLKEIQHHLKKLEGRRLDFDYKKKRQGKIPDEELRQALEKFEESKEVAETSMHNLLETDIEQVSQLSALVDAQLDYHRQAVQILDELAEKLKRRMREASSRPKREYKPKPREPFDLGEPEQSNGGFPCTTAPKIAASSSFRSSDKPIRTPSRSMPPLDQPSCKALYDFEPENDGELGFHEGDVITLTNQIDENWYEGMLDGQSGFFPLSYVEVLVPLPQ

Molecular target: Endophilin (endogenous, precipitated with anti-Endophilin A2 clone A-11) (human (endogenous in RPE1)) (UniProt Q99961)
Test: co-IP; anti-Endophilin antibody (clone A-11) coupled to hydrazide magnetic beads; fraction 7 of a sucrose gradient of membranes from RPE1 cells stimulated with 10% FBS (20% final) for 10 min; overnight 4 °C; elution with glycine pH 2; immunoblot

In the case of “Bin1 (endogenous) (from UniProt O00499-7)”, the binding is reported as “binds”.

These are yes or no findings as the source states them, for the method shown. In cells and extracts the contact can be indirect. Binding calls can cover weak binding; strength is not graded here.
